Experimental data from article doi:10.1101/2025.08.07.669166.

How the values were obtained:
Test in all cases: affinity purification with mass spectrometry
[1] = target: glucocorticoid receptor (human (endogenous in primary human cells, human cell lines and human PDX tumours)) (UniProt P04150)
[2] = target: glucocorticoid receptor (human (endogenous in primary human cells, human cell lines and human PDX tumours)) (UniProt P04150); remark: listed apart in the source
[3] = target: T1, glucocorticoid receptor (human (endogenous in primary human cells, human cell lines and human PDX tumours)), P04150; conditions: remark: other sources report otherwise
T1 chain: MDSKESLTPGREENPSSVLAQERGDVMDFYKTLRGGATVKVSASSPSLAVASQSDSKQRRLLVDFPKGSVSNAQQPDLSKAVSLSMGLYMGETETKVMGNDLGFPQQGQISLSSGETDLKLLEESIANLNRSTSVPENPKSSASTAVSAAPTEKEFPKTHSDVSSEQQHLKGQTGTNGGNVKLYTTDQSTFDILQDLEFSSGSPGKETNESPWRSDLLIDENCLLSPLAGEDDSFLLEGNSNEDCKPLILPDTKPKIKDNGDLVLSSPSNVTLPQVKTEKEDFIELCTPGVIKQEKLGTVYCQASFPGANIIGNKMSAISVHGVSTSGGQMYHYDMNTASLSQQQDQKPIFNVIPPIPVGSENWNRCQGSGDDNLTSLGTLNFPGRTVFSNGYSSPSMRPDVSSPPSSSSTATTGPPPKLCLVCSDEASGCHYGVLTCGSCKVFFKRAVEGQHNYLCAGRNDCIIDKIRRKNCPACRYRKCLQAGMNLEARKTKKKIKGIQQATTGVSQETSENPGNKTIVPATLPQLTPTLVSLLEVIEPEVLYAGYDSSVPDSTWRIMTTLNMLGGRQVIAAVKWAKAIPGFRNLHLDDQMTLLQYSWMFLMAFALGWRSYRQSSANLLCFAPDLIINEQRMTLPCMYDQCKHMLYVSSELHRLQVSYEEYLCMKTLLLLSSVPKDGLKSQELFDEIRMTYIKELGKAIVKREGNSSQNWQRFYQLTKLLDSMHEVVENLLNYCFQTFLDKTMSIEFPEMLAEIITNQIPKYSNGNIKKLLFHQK

B1: FOXA1 (protein, UniProt P55317 1-472)
chain: MLGTVKMEGHETSDWNSYYADTQEAYSSVPVSNMNSGLGSMNSMNTYMTMNTMTTSGNMTPASFNMSYANPGLGAGLSPGAVAGMPGGSAGAMNSMTAAGVTAMGTALSPSGMGAMGAQQAASMNGLGPYAAAMNPCMSPMAYAPSNLGRSRAGGGGDAKTFKRSYPHAKPPYSYISLITMAIQQAPSKMLTLSEIYQWIMDLFPYYRQNQQRWQNSIRHSLSFNDCFVKVARSPDKPGKGSYWTLHPDSGNMFENGCYLRRQKRFKCEKQPGAGGGGGSGSGGSGAKGGPESRKDPSGASNPSADSPLHRGVHGKTGQLEGAPAPGPAASPQTLDHSGATATGGASELKTPASSTAPPISSGPGALASVPASHPAHGLAPHESQLHLKGDPHYSFNHPFSINNLMSSSEQQHKLDFKAYEQALQYSPYGSTLPASLPLGSASVTTRSPIEPSALEPAYYQGVYSRPVLNTS
B1 was tested, and the binding [1] was “binds” and the binding [2] was “binds”.

B2: RXRA, P19793 1-462 (protein)
chain: MDTKHFLPLDFSTQVNSSLTSPTGRGSMAAPSLHPSLGPGIGSPGQLHSPISTLSSPINGMGPPFSVISSPMGPHSMSVPTTPTLGFSTGSPQLSSPMNPVSSSEDIKPPLGLNGVLKVPAHPSGNMASFTKHICAICGDRSSGKHYGVYSCEGCKGFFKRTVRKDLTYTCRDNKDCLIDKRQRNRCQYCRYQKCLAMGMKREAVQEERQRGKDRNENEVESTSSANEDMPVERILEAELAVEPKTETYVEANMGLNPSSPNDPVTNICQAADKQLFTLVEWAKRIPHFSELPLDDQVILLRAGWNELLIASFSHRSIAVKDGILLATGLHVHRNSAHSAGVGAIFDRVLTELVSKMRDMQMDKTELGCLRAIVLFNPDSKGLSNPAEVEALREKVYASLEAYCKHKYPEQPGRFAKLLLRLPALRSIGLKCLEHLFFFKLIGDTPIDTFLMEMLEAPHQMT
B2 was tested, and the binding [3] was “binds”.

Like-named read-outs stand apart in the source and are kept apart here. Results are given in words; binding and its absence hold for the method and conditions named. In cells and extracts the contact can be indirect. These calls come from enrichment with a bait or labelling near it, and not all partners need be listed. For part of these data: Tags and fused reporters may be left off the sequences shown.
